Reference: patent US20240218062A1 (DEVELOPMENT CENTER FOR BIOTECHNOLOGY, published 2024)
Results are given in words; binding and its absence hold for the method and conditions named. Some entries that bind do so weakly or less than the wild type.

Target: T1, NTSR1 on FaDu cells (human, UniProt P30989 1-418)
T1 construct: whole, on cells; Endogenous NTSR1 on the human FaDu cell line; also called NTSR1 expressing cells, FaDu
Test: flow cytometry on FaDu cells

- binding: binds
B1: humanized antibody 7C3 HuHd (antibody, V domains shown)
VH: QVQLVQSGAEVKKPGASVKVSCKASGYTFTSSWIHWVRQAPGQGLEWMGQIRPNSGNTYYNEKFKVRVTMTRDTSTSTVYMELSSLRSEDTAVYYCARYYYGFDYWGQGTLVTVSS
VL: DIQMTQSPSSLSASVGDRVTITCRSSQSIVHSNGNTYLEWYQQKPGKAPKLLIYKVSNRFSGVPSRFSGSGSGTDFTLTISSLQPEDFATYYCFQGSHLPWTFGQGTKVEIK
notes: Full-length antibody from the human Fc vectors
